The list shows a part of the results.

Amino acid sequences for entries named in this document (tags omitted). A change or cut given only in a name is not applied to a line headed by its entry.
UniProt P25440, whole entry, looked up: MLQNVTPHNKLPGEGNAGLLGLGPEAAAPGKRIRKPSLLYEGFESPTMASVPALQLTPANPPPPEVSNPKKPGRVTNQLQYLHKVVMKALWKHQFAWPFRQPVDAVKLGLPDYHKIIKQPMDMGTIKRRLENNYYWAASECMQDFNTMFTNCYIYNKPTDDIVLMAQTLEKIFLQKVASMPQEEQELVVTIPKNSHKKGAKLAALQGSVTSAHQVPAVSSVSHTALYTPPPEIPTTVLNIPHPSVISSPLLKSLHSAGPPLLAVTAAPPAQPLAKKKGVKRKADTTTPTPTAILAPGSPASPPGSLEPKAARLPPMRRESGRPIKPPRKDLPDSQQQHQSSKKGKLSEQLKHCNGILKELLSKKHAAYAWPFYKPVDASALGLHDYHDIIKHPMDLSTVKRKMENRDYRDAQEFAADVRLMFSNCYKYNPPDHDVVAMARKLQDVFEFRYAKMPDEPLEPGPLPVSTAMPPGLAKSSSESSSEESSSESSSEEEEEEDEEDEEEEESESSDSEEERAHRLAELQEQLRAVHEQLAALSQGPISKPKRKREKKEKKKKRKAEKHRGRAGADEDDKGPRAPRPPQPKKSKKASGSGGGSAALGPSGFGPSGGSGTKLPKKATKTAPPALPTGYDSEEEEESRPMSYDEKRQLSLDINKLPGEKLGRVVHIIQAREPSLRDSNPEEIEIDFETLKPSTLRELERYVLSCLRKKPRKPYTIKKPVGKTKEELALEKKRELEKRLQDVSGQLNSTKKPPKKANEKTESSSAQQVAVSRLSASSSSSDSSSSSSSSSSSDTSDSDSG
UniProt Q9H6U6: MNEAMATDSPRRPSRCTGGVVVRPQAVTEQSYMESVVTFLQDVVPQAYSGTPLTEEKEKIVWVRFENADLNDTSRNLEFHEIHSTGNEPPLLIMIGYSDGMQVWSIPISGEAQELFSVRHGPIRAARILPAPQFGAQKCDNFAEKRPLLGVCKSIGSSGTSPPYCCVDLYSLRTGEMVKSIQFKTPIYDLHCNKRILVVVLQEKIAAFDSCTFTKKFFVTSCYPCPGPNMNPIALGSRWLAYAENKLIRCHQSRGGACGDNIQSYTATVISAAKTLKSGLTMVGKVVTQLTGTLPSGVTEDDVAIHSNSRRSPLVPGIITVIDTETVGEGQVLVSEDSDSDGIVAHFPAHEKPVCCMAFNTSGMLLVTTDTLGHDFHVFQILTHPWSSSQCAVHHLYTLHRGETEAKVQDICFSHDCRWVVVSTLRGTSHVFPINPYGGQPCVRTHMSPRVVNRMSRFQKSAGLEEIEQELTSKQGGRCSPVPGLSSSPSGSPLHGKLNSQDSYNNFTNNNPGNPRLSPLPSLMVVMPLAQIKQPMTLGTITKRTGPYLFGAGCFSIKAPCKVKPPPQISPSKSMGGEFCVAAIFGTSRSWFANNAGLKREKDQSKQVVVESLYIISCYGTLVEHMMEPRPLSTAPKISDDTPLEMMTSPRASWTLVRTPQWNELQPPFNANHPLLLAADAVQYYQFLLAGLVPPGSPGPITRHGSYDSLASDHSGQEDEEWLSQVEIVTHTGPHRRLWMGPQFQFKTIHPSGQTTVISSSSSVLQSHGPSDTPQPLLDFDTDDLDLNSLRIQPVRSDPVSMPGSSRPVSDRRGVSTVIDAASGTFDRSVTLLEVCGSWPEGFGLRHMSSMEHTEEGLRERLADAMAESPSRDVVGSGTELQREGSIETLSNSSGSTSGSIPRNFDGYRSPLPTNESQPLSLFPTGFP
UniProt P54132: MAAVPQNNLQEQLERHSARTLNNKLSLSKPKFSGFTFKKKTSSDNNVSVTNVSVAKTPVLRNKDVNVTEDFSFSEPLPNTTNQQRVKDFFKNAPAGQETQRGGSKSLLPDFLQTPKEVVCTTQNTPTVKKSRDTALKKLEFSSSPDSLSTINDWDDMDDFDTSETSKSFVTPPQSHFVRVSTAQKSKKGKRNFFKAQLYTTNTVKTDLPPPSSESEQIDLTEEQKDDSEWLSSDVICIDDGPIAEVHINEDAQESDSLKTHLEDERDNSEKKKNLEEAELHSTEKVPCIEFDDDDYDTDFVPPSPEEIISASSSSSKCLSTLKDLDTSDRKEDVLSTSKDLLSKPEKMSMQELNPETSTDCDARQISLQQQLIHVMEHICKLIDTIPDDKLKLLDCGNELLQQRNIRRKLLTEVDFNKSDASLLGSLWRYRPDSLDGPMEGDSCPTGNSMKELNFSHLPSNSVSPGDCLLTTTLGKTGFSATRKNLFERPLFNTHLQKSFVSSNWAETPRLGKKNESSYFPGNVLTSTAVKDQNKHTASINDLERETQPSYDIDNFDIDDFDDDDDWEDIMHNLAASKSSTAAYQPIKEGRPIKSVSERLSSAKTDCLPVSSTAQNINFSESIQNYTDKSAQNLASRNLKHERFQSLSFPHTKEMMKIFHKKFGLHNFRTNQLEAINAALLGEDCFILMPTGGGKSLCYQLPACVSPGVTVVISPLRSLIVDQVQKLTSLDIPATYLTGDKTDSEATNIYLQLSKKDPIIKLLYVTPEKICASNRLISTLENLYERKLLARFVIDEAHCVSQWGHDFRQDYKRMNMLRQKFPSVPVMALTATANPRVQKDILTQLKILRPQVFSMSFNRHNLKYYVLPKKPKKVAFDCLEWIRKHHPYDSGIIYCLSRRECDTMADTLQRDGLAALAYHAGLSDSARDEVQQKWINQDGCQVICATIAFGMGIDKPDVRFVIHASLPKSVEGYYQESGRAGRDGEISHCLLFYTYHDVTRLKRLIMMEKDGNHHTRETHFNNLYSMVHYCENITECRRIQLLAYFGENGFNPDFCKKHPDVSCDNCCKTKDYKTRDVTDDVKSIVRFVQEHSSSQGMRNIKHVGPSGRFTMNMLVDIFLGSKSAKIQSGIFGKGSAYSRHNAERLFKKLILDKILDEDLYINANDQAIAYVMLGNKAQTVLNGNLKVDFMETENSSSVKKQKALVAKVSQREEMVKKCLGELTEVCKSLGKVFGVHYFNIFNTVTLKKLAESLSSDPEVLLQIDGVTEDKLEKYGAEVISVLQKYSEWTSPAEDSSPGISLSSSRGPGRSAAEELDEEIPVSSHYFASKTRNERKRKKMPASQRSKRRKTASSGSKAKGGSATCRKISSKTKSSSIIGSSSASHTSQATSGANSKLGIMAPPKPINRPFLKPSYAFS
UniProt Q8WY22: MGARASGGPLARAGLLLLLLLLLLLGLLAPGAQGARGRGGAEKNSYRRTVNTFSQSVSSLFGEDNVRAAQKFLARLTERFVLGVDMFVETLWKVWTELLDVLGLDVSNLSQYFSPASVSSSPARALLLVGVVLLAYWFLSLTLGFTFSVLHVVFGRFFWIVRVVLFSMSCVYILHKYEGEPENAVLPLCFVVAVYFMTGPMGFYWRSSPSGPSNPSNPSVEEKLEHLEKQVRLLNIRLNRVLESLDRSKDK
UniProt Q15059, whole entry, looked up: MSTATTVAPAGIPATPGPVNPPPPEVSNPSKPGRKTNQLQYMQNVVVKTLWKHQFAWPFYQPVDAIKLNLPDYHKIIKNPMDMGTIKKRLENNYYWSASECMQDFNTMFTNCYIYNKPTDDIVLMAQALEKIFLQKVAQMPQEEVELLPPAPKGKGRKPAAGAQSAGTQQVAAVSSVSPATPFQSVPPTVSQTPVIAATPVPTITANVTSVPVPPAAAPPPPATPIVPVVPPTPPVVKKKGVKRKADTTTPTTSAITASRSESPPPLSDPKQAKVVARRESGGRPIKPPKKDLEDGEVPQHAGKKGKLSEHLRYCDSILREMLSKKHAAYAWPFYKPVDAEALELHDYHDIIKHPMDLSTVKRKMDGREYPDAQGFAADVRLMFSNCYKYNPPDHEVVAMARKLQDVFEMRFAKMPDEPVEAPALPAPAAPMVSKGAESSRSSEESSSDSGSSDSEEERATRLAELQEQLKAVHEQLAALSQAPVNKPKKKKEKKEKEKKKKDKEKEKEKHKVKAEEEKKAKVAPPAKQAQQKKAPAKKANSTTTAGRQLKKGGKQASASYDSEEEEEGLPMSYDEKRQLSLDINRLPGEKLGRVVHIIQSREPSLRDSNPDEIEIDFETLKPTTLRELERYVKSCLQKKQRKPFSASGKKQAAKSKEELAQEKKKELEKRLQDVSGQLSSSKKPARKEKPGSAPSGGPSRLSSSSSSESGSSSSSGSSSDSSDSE
UniProt Q9UQB8: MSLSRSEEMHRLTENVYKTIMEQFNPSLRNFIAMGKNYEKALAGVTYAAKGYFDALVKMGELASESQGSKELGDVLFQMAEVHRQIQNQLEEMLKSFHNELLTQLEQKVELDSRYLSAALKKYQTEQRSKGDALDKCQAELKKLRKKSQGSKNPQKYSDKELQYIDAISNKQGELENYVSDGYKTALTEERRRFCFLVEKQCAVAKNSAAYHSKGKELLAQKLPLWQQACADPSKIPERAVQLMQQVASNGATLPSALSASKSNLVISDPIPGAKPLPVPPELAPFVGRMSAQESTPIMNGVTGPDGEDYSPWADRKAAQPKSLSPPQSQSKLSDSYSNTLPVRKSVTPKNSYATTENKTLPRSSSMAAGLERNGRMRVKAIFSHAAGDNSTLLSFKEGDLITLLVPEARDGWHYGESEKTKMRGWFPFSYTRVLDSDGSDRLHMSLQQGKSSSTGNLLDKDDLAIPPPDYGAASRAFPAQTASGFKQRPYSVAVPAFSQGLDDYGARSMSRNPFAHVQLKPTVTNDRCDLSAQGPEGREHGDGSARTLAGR
UniProt P54687: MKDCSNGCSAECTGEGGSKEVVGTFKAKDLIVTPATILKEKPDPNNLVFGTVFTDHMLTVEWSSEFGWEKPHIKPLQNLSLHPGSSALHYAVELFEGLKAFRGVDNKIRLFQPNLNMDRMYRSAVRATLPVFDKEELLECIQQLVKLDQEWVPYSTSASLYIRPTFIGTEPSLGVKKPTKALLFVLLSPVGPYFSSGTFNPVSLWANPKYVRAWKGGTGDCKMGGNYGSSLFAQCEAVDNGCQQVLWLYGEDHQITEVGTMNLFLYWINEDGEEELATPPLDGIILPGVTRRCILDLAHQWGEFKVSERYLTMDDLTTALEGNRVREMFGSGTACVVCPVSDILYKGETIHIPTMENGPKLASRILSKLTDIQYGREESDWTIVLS
UniProt Q9H0E9, whole entry, looked up: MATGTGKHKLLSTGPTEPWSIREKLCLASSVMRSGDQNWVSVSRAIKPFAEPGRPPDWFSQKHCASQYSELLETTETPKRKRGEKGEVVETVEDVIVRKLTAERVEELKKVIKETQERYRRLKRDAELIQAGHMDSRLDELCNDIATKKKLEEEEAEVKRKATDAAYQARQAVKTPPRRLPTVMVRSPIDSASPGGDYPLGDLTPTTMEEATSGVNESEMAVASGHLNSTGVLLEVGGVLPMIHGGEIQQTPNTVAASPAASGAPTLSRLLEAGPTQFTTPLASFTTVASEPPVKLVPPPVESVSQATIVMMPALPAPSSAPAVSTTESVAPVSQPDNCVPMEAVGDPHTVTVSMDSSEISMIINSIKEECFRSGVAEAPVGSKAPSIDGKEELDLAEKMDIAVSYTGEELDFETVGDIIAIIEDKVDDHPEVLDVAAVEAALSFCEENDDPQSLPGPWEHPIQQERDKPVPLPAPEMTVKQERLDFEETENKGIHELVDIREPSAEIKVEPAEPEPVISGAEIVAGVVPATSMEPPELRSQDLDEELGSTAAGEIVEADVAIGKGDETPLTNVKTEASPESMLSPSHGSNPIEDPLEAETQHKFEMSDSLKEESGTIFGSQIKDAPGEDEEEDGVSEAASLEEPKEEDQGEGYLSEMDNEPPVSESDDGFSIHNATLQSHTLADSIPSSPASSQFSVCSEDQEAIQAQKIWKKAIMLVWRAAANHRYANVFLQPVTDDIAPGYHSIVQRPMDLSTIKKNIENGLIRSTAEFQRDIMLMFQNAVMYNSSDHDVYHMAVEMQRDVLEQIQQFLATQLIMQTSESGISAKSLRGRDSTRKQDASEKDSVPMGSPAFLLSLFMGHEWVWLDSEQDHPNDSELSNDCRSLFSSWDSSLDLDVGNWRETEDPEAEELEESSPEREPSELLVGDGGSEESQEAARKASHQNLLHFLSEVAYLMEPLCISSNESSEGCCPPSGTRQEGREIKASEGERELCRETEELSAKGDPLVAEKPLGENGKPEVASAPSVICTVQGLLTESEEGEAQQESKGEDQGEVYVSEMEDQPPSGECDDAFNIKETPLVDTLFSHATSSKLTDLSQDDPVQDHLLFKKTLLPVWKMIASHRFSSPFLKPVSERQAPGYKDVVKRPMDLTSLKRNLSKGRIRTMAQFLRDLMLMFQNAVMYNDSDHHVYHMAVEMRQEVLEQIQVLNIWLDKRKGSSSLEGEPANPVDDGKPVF
UniProt Q9NUP1: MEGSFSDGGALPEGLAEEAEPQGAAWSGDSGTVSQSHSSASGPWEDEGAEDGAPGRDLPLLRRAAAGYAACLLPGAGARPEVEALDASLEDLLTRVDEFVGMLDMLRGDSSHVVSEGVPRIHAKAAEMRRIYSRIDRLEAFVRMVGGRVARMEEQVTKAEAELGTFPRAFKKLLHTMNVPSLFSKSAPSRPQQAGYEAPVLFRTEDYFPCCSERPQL

Compound in the first assay: CC1=C2C(=CC=C1)N=C(N(C2=O)C3=CC=CC=C3C)CN4C=NC5=C(N=CN=C54)N
Description: log2 fold change, soluble protein after heating vs DMSO (PISA); higher = thermal stabilisation; K562 lysate, 10 uM; active = over 0.2 and 3.5 SD of the protein, either way, in both replicates (recomputed). The gist of the method:
(§1)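 Quantification was by TMTpro 16plex LC-MS/MS with equalised channel sums, applied to the supernatant after 21,000xg for 90 min. Samples were crude K562 extract at 1 mg/mL protein in PBS pH 7.4 with 1 mM MgCl2, treated with 10 μM compound for 30 min, heated for 3 min across 48°C-58°C, pooled and brought to 0.5% NP-40 at 4°C. Values are log-two fold changes in thermal stability relative to solvent controls, from duplicates.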
Take BCL9 (UniProt O00512): the log2 fold change was inactive: -0.265.

For the target BRD2 isoform 2 (UniProt P25440), the log2 fold change is inactive: 0.081.

Regarding BCAS3 isoform 8 (UniProt Q9H6U6), the log2 fold change is inactive: 0.05.

With BLOC1S3 (UniProt Q6QNY0), the log2 fold change was inactive: 0.026.

As to BLM (UniProt P54132), the log2 fold change is inactive: -0.005.

Turning to BORCS7 (UniProt Q96B45), the log2 fold change was inactive: 0.123.

BCL10 (UniProt O95999): the log2 fold change is inactive: 0.004.

In the case of BRI3BP (UniProt Q8WY22), the log2 fold change is inactive: 0.009.

With BCAT2 (UniProt O15382), the log2 fold change is inactive: -0.011.

Turning to BET1L (UniProt Q9NYM9), the log2 fold change is inactive: -0.108.

As for BRD3 (UniProt Q15059), the log2 fold change is inactive: 0.112.

With BRAT1 (UniProt Q6PJG6), the log2 fold change was inactive: 0.027.

For BLOC1S5 (UniProt Q8TDH9), the log2 fold change is inactive: -0.018.

For BTBD1 (UniProt Q9H0C5), the log2 fold change is inactive: 0.128.

On to BAIAP2 (UniProt Q9UQB8), for which the log2 fold change was inactive: 0.008.

In the case of BAG5 isoform 2 (UniProt Q9UL15), the log2 fold change is inactive: 0.047.

As for BCL2L1 (UniProt Q07817), the log2 fold change was inactive: 0.023.

With BCL7A isoform 2 (UniProt Q4VC05), the log2 fold change is inactive: 0.005.

As to BORCS5 (UniProt Q969J3), the log2 fold change is inactive: -0.015.

For B4GALT1 (UniProt P15291), the log2 fold change is inactive: -0.102.

With BCKDHB (UniProt P21953), the log2 fold change is inactive: 0.09.

Take BCAT1 (UniProt P54687): the log2 fold change was inactive: -0.009.

For BAZ1A (UniProt Q9NRL2), the log2 fold change is inactive: 0.005.

As to BAG2 (UniProt O95816), the log2 fold change was inactive: -0.013.

Turning to BRD8 isoform 2 (UniProt Q9H0E9), the log2 fold change is inactive: 0.003.

As to BIRC2 (UniProt Q13490), the log2 fold change was inactive: 0.005.

Take BACH1 (UniProt O14867): the log2 fold change is inactive: -0.007.

In the case of BMP2K (UniProt Q9NSY1), the log2 fold change is inactive: -0.09.

BCCIP isoform 2 (UniProt Q9P287): the log2 fold change was inactive: -0.028.

Take BCL2L11 (UniProt O43521): the log2 fold change was inactive: -0.116.

As for BLOC1S4 (UniProt Q9NUP1), the log2 fold change is inactive: -0.006.

In the case of BPHL (UniProt Q86WA6), the log2 fold change was inactive: -0.028.

In the case of BAD (UniProt Q92934), the log2 fold change is inactive: -0.036.

For the target BCL7B (UniProt Q9BQE9), the log2 fold change is inactive: -0.064.

Compound in a further assay: Cc1sc2c(c1C)C(c1ccc(Cl)cc1)=N[C@@H](CC(=O)OC(C)(C)C)c1nnc(C)n1-2
The description is as above. The gist of the method:
as §1
BRD2 isoform 2 (UniProt P25440): the log2 fold change was active: 0.644.

On to BRD7 isoform 2 (UniProt Q9NPI1), for which the log2 fold change is inactive: -0.015.

Consider BCAS3 isoform 8 (UniProt Q9H6U6), for which the log2 fold change is inactive: 0.019.

As to BLOC1S3 (UniProt Q6QNY0), the log2 fold change is inactive: 0.057.

For BLM (UniProt P54132), the log2 fold change is inactive: -0.002.

For the target BDH2 (UniProt Q9BUT1), the log2 fold change was inactive: 0.055.

With BCL10 (UniProt O95999), the log2 fold change is inactive: -0.03.

With BRI3BP (UniProt Q8WY22), the log2 fold change was inactive: 0.019.

Turning to BCAT2 (UniProt O15382), the log2 fold change was inactive: -0.025.

For BET1L (UniProt Q9NYM9), the log2 fold change was inactive: -0.01.

Turning to BRD3 (UniProt Q15059), the log2 fold change is active: 0.5.

BRAT1 (UniProt Q6PJG6): the log2 fold change was inactive: 0.005.

BLOC1S5 (UniProt Q8TDH9): the log2 fold change is inactive: 0.044.

For BAIAP2 (UniProt Q9UQB8), the log2 fold change is inactive: 0.06.

BAG5 isoform 2 (UniProt Q9UL15): the log2 fold change is inactive: 0.021.

For BTBD10 isoform 2 (UniProt Q9BSF8), the log2 fold change is inactive: -0.017.

Turning to BCL2L1 (UniProt Q07817), the log2 fold change is inactive: 0.011.

As to BCL7A isoform 2 (UniProt Q4VC05), the log2 fold change is inactive: 0.143.

On to BORCS5 (UniProt Q969J3), for which the log2 fold change was inactive: -0.005.

Regarding BCKDHB (UniProt P21953), the log2 fold change is inactive: 0.074.

Take BCAT1 (UniProt P54687): the log2 fold change is inactive: -0.012.

Consider BAZ1A (UniProt Q9NRL2), for which the log2 fold change was inactive: 0.036.

For the target BAG2 (UniProt O95816), the log2 fold change was inactive: 0.017.

As for BRD8 isoform 2 (UniProt Q9H0E9), the log2 fold change was inactive: -0.024.

With BIRC2 (UniProt Q13490), the log2 fold change is inactive: 0.019.

Turning to BACH1 (UniProt O14867), the log2 fold change was inactive: -0.044.

For BMP2K (UniProt Q9NSY1), the log2 fold change was inactive: 0.

In the case of BCCIP isoform 2 (UniProt Q9P287), the log2 fold change was inactive: -0.008.

Turning to BLOC1S4 (UniProt Q9NUP1), the log2 fold change is inactive: -0.006.

For B4GAT1 (UniProt O43505), the log2 fold change was inactive: -0.044.

For the target BPHL (UniProt Q86WA6), the log2 fold change is inactive: 0.158.

In the case of BAD (UniProt Q92934), the log2 fold change was inactive: -0.04.

In the case of BCL7B (UniProt Q9BQE9), the log2 fold change is inactive: 0.122.

Compound in the next assay: c1ccc([C@@H]2C[C@H]2NC2CCNCC2)cc1
The description is as above. The gist of the method:
as §1
Turning to BCL9 (UniProt O00512), the log2 fold change was inactive: 0.125.

BRD2 isoform 2 (UniProt P25440): the log2 fold change is inactive: 0.071.

BRD7 isoform 2 (UniProt Q9NPI1): the log2 fold change was inactive: 0.125.

As for BCAS3 isoform 8 (UniProt Q9H6U6), the log2 fold change is inactive: -0.095.

For the target BLOC1S3 (UniProt Q6QNY0), the log2 fold change is inactive: -0.027.

Consider BLM (UniProt P54132), for which the log2 fold change was inactive: 0.114.

As to BORCS7 (UniProt Q96B45), the log2 fold change is inactive: -0.005.

Take BCL10 (UniProt O95999): the log2 fold change is inactive: -0.012.

With BRI3BP (UniProt Q8WY22), the log2 fold change was inactive: 0.117.

Take BCAT2 (UniProt O15382): the log2 fold change is inactive: -0.048.

Turning to BET1L (UniProt Q9NYM9), the log2 fold change is inactive: 0.053.

For the target BRD3 (UniProt Q15059), the log2 fold change was inactive: -0.167.

In the case of BRAT1 (UniProt Q6PJG6), the log2 fold change is inactive: 0.003.

As for BLOC1S5 (UniProt Q8TDH9), the log2 fold change was inactive: -0.016.

On to BTBD1 (UniProt Q9H0C5), for which the log2 fold change is inactive: -0.013.

With BAIAP2 (UniProt Q9UQB8), the log2 fold change is inactive: 0.044.

As for BAG5 isoform 2 (UniProt Q9UL15), the log2 fold change was inactive: -0.021.

With BCL2L1 (UniProt Q07817), the log2 fold change was inactive: -0.027.

Consider BCL7A isoform 2 (UniProt Q4VC05), for which the log2 fold change was inactive: 0.091.

In the case of BORCS5 (UniProt Q969J3), the log2 fold change was inactive: -0.011.

Take B4GALT1 (UniProt P15291): the log2 fold change was inactive: 0.006.

BCKDHB (UniProt P21953): the log2 fold change is inactive: 0.119.

As to BCAT1 (UniProt P54687), the log2 fold change was inactive: -0.031.

With BAZ1A (UniProt Q9NRL2), the log2 fold change is inactive: 0.003.

BAG2 (UniProt O95816): the log2 fold change is inactive: -0.001.

BRD8 isoform 2 (UniProt Q9H0E9): the log2 fold change was inactive: -0.014.

Take BIRC2 (UniProt Q13490): the log2 fold change was inactive: -0.028.

For the target BACH1 (UniProt O14867), the log2 fold change is inactive: -0.011.

With BMP2K (UniProt Q9NSY1), the log2 fold change is inactive: -0.146.

BCCIP isoform 2 (UniProt Q9P287): the log2 fold change was inactive: 0.055.

Take BCL2L11 (UniProt O43521): the log2 fold change was inactive: 0.022.

For BLOC1S4 (UniProt Q9NUP1), the log2 fold change is inactive: 0.038.

Consider BPHL (UniProt Q86WA6), for which the log2 fold change was inactive: 0.014.

BAD (UniProt Q92934): the log2 fold change was inactive: -0.018.

Turning to BCL7B (UniProt Q9BQE9), the log2 fold change was inactive: 0.188.
